Not every detail of the peptide structures is certain; ends, links or a residue may be inferred.
Test system: GTM-3 cells
Assay: Uptake of siGLO siRNA by GTM-3 cells measured by flow cytometry (FACS)
Assay type: cell-based

In the case of CC[C@H](C)[C@H](NC(=O)[C@H](CC(=O)O)NC(=O)[C@H](CS)NC(=O)[C@@H]1CCCN1C(=O)[C@@H](NC(=O)CNC(=O)[C@@H]1CCCN1C(=O)[C@H](CCCNC(=N)N)NC(=O)[C@@H]1CCCN1C(=O)[C@H](CC(N)=O)NC(=O)[C@H](CCC(=O)O)NC(=O)[C@@H]1CCCN1C(=O)[C@H](CCSC)NC(=O)[C@H](Cc1c[nH]c2ccccc12)NC(=O)[C@@H](NC(=O)[C@@H](NC(=O)[C@@H](N)Cc1ccc(O)cc1)[C@@H](C)O)[C@@H](C)CC)[C@@H](C)O)C(=O)N[C@@H](Cc1ccccc1)C(=O)N[C@H](C(=O)N[C@@H](CC(N)=O)C(=O)N[C@@H](CO)C(=O)N[C@@H](CCCNC(=N)N)C(=O)NCC(=O)N[C@@H](CCCCN)C(=O)N[C@@H](CCCNC(=N)N)C(=O)N[C@@H](C)C(=O)N[C@@H](CO)C(=O)N[C@@H](CC(N)=O)C(=O)NCC(=O)NCC(=O)NCC(=O)NCC(=O)N[C@H](CCCNC(=N)N)C(=O)N[C@H](CCCNC(=N)N)C(=O)N[C@H](CCCNC(=N)N)C(=O)N[C@H](CCCNC(=N)N)C(=O)N[C@H](CCCNC(=N)N)C(=O)N[C@H](CCCNC(=N)N)C(=O)N[C@H](CCCNC(=N)N)C(=O)N[C@H](CCCNC(=N)N)C(=O)N[C@H](CCCNC(=N)N)C(=O)O)[C@@H](C)O [RVG-9×Arg peptide], the “uptake of siGLO siRNA (result in words)” value is reported as “little effect”.
